According to PMC4587843, “Vascular Smooth Muscle Cells Stimulate Platelets and Facilitate Thrombus Formation through Platelet CLEC-2: Implications in Atherothrombosis” (PLoS ONE, 2015):
Results are given in words; binding and its absence hold for the method and conditions named. Some results given as binding are weak or reduced against the parent protein; the word gives no strength. Where a sequence is shown, tags or fusion partners need not be part of it.

Sequences of proteins named here, by UniProt entry; tags and fusion partners are left off. Residues count along the entry.
UniProt Q9P126, residues 55-229: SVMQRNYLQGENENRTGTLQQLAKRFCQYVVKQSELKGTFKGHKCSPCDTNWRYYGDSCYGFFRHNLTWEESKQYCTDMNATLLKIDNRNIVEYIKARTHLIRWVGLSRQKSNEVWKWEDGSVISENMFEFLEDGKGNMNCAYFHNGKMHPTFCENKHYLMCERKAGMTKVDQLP

T1: GST-tagged S100A13 recombinant protein (UniProt Q99584)
T1 sequence: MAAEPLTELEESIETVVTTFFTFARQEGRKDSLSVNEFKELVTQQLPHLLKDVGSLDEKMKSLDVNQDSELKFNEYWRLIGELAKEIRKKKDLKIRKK


Experiments:
[1] = target: T1, GST-tagged S100A13 recombinant protein; test: platelet adhesion assay; coverslips coated with 100 ug/mL recombinant S100A13-GST, blocked with BSA; washed murine platelets (WT or CLEC-2-deficient, 6 x 10^7/mL) seeded 30 min at room temperature; adherent platelets stained with TRITC-phalloidin and counted; only the target purified
[2] = target: recombinant extracellular domain of human CLEC-2 expressed as a dimeric rabbit immunoglobulin Fc domain fusion protein (human) (UniProt Q9P126); test: SPR; data not shown; analytes perfused over recombinant CLEC-2 (hCLEC-2-rFc2); both purified

| binding [1] | binding [2] | Binder |
| --- | --- | --- |
| binds |  | native CLEC-2 on the surface of murine platelets (receptor, UniProt Q9JL99 1-229) MQDEDGYITLNIKPRKQALSSAEPASSWWRVMALVLLISSMGLVVGLVALGIMSVTQQKYLLAEKENLSATLQQLAKKFCQELIRQSEIKTKSTFEHKCSPCATKWRYHGDSCYGFFRRNLTWEESKQYCTEQNATLVKTASQSTLDYIAERITSVRWIGLSRQNSKKDWMWEDSSVLRKNGINLSGNTEENMNCAYLHNGKIHPASCKERHYLICERNAGMTRVDQLL |
|  | binds | GST-tagged S100A13 recombinant protein (natural protein, UniProt Q99584 1-98, looked up, S100A13; also called S100A13-GST; recombinant S100A13-GST; source: bought: CycLex Co., Ltd. (Japan)) MAAEPLTELEESIETVVTTFFTFARQEGRKDSLSVNEFKELVTQQLPHLLKDVGSLDEKMKSLDVNQDSELKFNEYWRLIGELAKEIRKKKDLKIRKK |
